Earlier results as cited in patent publication US20020006953A1, “MODIFICATION OF CHOLESTEROL CONCENTRATIONS WITH CITUS PHYTOCHEMICALS” (priority 1999, published 2002).
Like-named read-outs stand apart in the source and are kept apart here.

Settings: 4-5 weeks

Nc1nc2ncc(CNc3ccc(C(=O)N[C@@H](CCC(=O)O)C(=O)O)cc3)nc2c(=O)[nH]1 [folic acid]
plasma folate, increase (individuals with coronary heart disease, 127 μg daily): 30% | plasma folate, increase (women, 250 μg per day): 100%
